Test results: US9440976B2, “1,7-diazacarbazoles and methods of use” (Genentech, Inc., priority 2009, dated 2016)
Some entries share one result that the patent states for a list of compounds.

Assays:
chk1 = biological target: T1, chk1 (Homo sapiens, UniProt O14757); experiment: Chk1 primary assays (AlphaScreen / ATP radiometric); assay type: biochemical; details: assays of EXAMPLE i; 10 μM ATP, 30 minutes; AlphaScreen or ATP radiometric format not specified; read-out: IC50 against chk1
T1 construct: Full length human mutant recombinant protein, histidine tagged; histidine tag; purchased Invitrogen PV3982; host or cells: insect cells
T1 sequence (O14757 1-476): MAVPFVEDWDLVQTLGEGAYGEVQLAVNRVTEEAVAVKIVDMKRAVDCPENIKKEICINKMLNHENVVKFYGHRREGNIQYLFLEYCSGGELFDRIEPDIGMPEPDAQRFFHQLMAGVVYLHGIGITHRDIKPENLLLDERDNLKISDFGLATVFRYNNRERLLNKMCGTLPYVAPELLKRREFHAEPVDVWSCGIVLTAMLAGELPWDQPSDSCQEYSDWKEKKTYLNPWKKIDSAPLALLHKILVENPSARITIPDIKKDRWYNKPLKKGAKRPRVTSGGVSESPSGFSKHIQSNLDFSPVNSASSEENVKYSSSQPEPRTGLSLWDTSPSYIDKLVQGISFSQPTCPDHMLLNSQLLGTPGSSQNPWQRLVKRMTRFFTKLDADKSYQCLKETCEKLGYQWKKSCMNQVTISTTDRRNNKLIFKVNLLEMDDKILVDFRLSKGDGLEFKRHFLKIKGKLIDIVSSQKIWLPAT

[1] = tested on: human colorectal adenocarcinoma derived cell line HT-29; experiment: Cellular assay (checkpoint abrogation); assay type: cell-based; details: HT-29 cells; 20 nM SN-38, then 300 nM nocodazole plus compound for 24 h; read-out: EC50 (50% decrease of phospho-Histone H3)

| SMILES | IC50 (chk1) [µM] | EC50 [1] [µM] |
| --- | --- | --- |
| N#Cc1cc2c(cn1)[nH]c1nccc(N3CC[C@H](NCCCF)C3)c12 [Example 77, (S)-4-(N-(3-fluoropropyl)pyrrolidin-3-amino)-9H-dipyrido[2,3-b;4′,3′-d]pyrrole-6-carbonitrile] | < 5 | < 10 |
| CC(C)(O)CN1CCC(Oc2c(C#N)ncc3[nH]c4ncccc4c23)CC1 [Example 164, 5-[1-(2-Hydroxy-2-methyl-propyl)-piperidin-4-yloxy]-9H-dipyrido[2,3-b;4′,3′-d]pyrrole-6-carbonitrile] | < 5 | < 10 |
| CN1CCC(Oc2c(C#N)ncc3[nH]c4ncccc4c23)CC1 [Example 122, 5-(1-Methyl-piperidin-4-yloxy)-9H-dipyrido[2,3-b;4′,3′-d]pyrrole-6-carbonitrile] | < 5 | < 10 |
| CN1CCNC[C@H]1COc1ccnc2[nH]c3cnc(C#N)cc3c12 [Example 8, (S)-4-((1-methylpiperazin-2-yl)methoxy)-9H-dipyrido[2,3-b;4′,3′-d]pyrrole-6-carbonitrile] | < 5 | < 10 |
| N#Cc1ncc2[nH]c3ncccc3c2c1N1CCC(O)CC1 [Example 140, 5-(4-Hydroxy-piperidin-1-yl)-9H-dipyrido[2,3-b;4′,3′-d]pyrrole-6-carbonitrile] | < 5 | < 10 |
| N#Cc1ncc2[nH]c3ncccc3c2c1NC1CCN(CC2CC2)CC1 [Example 130, 5-(1-Cyclopropylmethyl-piperidin-4-ylamino)-9H-dipyrido[2,3-b;4′,3′-d]pyrrole-6-carbonitrile] | < 5 | < 10 |
| CCN1CCC(Oc2c(C#N)ncc3[nH]c4ncc(Cl)cc4c23)CC1 [Example 168, 3-Chloro-5-(1-ethyl-piperidin-4-yloxy)-9H-dipyrido[2,3-b;4′,3′-d]pyrrole-6-carbonitrile] | < 5 | < 10 |
| CCN[C@H]1CCCN(c2ccnc3[nH]c4cnc(C#N)cc4c23)C1 [Example 35, (S)-4-(3-(ethylamino)piperidin-1-yl)-9H-dipyrido[2,3-b;4′,3′-d]pyrrole-6-carbonitrile] | < 5 | < 10 |
| CN1CCO[C@@H](COc2ccnc3[nH]c4cnc(C#N)cc4c23)C1 [Example 30, (R)-4-(4-methylmorpholin-2-ylmethoxy)-9H-dipyrido[2,3-b;4′,3′-d]pyrrole-6-carbonitrile] | < 5 | < 10 |
| N#Cc1cc2c(cn1)[nH]c1nccc(N3CC[C@H](O)C3)c12 [Example 107, 4-((S)-3-Hydroxypyrrolidin-1-yl)-9H-dipyrido[2,3b;4′,3′-d]pyrrole-6-carbonitrile] | < 5 | < 10 |
| N#Cc1cc2c(cn1)[nH]c1ncc(Cl)c(N3CCC[C@H](O)C3)c12 [Example 49, (S)-3-Chloro-4-(3-hydroxypiperidin-1-yl)-9H-dipyrido[2,3-b;4′,3′-d]pyrrole-6-carbonitrile] | < 5 | < 10 |
| N#Cc1ncc2[nH]c3ncccc3c2c1O[C@H]1CCNC[C@@H]1F (relative stereo) [Example 126] | < 5 | < 10 |
| N#Cc1ncc2[nH]c3ncc(Br)cc3c2c1N1CCC(N2CCOCC2)CC1 [Example 156, 3-Bromo-5-(4-morpholin-4-yl-piperidin-1-yl)-9H-dipyrido[2,3-b;4′,3′-d]pyrrole-6-carbonitrile] | < 5 | < 10 |
| N#Cc1cc2c(cn1)[nH]c1nccc(NCC3CNCCO3)c12 (stereo not shown) [Example 1, 4-(N-(morpholin-2-ylmethyl))-9H-dipyrido[2,3-b;4′,3′-d]pyrrole-6-carbonitrile] | < 5 | < 10 |
| N#Cc1ncc2[nH]c3ncccc3c2c1N1CCC(N2CCCC2)C1 (stereo not shown) [Example 131, 5-[1,3′]Bipyrrolidinyl-1′-yl-9H-dipyrido[2,3-b;4′,3′-d]pyrrole-6-carbonitrile] | < 5 | < 10 |
| CN1CCCC[C@@H]1COc1ccnc2[nH]c3cnc(C#N)cc3c12 [Example 75, (R)-4-((1-methylpiperidin-2-yl)methoxy)-9H-dipyrido[2,3-b;4′,3′-d]pyrrole-6-carbonitrile] | < 5 | < 10 |
| N#Cc1ncc2[nH]c3ncc(F)cc3c2c1N1CCC(N2CCOCC2)CC1 [Example 153, 3-Fluoro-5-(4-morpholin-4-yl-piperidin-1-yl)-9H-dipyrido[2,3-b;4′,3′-d]pyrrole-6-carbonitrile] | < 5 | < 10 |
| N#Cc1ncc2[nH]c3ncccc3c2c1N1CCC(N2CCCC2)CC1 [Example 170, 5-(4-Pyrrolidin-1-yl-piperidin-1-yl)-9H-dipyrido[2,3-b;4′,3′-d]pyrrole-6-carbonitrile] | < 5 | < 10 |

| SMILES | IC50 (chk1) [µM] | EC50 [1] [µM] |
| --- | --- | --- |
| N#Cc1cc2c(cn1)[nH]c1nccc(O[C@H]3C[C@@H](N)C3)c12 [Example 6, 4-((1s,3s)-cyclobutanamine-3-yloxy)-9H-dipyrido[2,3-b;4′,3′-d]pyrrole-6-carbonitrile] | < 5 | < 10 |
| N#Cc1ncc2[nH]c3ncccc3c2c1O[C@H]1CCCNC1 [Example 111, 5-((S)-Piperidin-3-yloxy)-9H-dipyrido[2,3-b;4′,3′-d]pyrrole-6-carbonitrile] | < 5 | < 10 |
| CN(C)[C@@H]1CCN(c2ccnc3[nH]c4cnc(C#N)cc4c23)C1 [Example 83, (R)-4-(N,N-dimethylpyrrolidin-3-amino)-9H-dipyrido[2,3-b;4′,3′-d]pyrrole-6-carbonitrile] | < 5 | < 10 |
| CNC1CCN(c2ccnc3[nH]c4cnc(C#N)cc4c23)CC1 [Example 105, 4-(4-Methylaminopiperidin-1-yl)-9H-dipyrido[2,3-b;4′,3′-d]pyrrole-6-carbonitrile] | < 5 | < 10 |
| CN(C)[C@H]1CCCN(c2ccnc3[nH]c4cnc(C#N)cc4c23)C1 [Example 27] | < 5 | < 10 |
| CN1CC[C@H]2CN(c3ccnc4[nH]c5cnc(C#N)cc5c34)C[C@H]21 [Example 86, 4-((3aS,6aS)-1-methyloctahydropyrrolo[3,4-b]pyrrol)-9H-dipyrido[2,3-b;4′,3′-d]pyrrole-6-carbonitrile] | < 5 | < 10 |
| CC1(O)CCN(c2c(C#N)ncc3[nH]c4ncccc4c23)CC1 [Example 143, 5-(4-Hydroxy-4-methyl-piperidin-1-yl)-9H-dipyrido[2,3-b;4′,3′-d]pyrrole-6-carbonitrile] | < 5 | < 10 |
| CCN1CCC(Nc2c(C#N)ncc3[nH]c4ncc(Br)cc4c23)CC1 [Example 150, 3-Bromo-5-(1-ethyl-piperidin-4-ylamino)-9H-dipyrido[2,3-b;4′,3′-d]pyrrole-6-carbonitrile] | < 5 | < 10 |
| CN(C)[C@H]1CCN(c2ccnc3[nH]c4cnc(C#N)cc4c23)C1 [Example 84, (S)-4-(N,N-dimethylpyrrolidin-3-amino)-9H-dipyrido[2,3-b;4′,3′-d]pyrrole-6-carbonitrile] | < 5 | < 10 |
| CCN[C@H]1CCN(c2c(Cl)cnc3[nH]c4cnc(C#N)cc4c23)C1 [Example 55, (S)-3-Chloro-4-(3-(ethylamino)pyrrolidin-1-yl)-9H-dipyrido[2,3-b;4′,3′-d]pyrrole-6-carbonitrile] | < 5 | < 10 |
| N#Cc1ncc2[nH]c3ncccc3c2c1N1CCNCC1 [Example 173, 5-Piperazin-1-yl-9H-dipyrido[2,3-b;4′,3′-d]pyrrole-6-carbonitrile] | < 5 | < 10 |
| CN1CCC[C@@H](Oc2ccnc3[nH]c4cnc(C#N)cc4c23)C1 [Example 66, (R)-4-(1-methylpiperidin-3-yloxy)-9H-dipyrido[2,3-b;4′,3′-d]pyrrole-6-carbonitrile] | < 5 | < 10 |
| N#Cc1ncc2[nH]c3ncccc3c2c1NC1CCN(CCC(F)(F)F)CC1 [Example 123, 5-[1-(3,3,3-Trifluoro-propyl)-piperidin-4-ylamino]-9H-dipyrido[2,3-b;4′,3′-d]pyrrole-6-carbonitrile] | < 5 | < 10 |
| CCCCN1CCC(Oc2c(C#N)ncc3[nH]c4ncccc4c23)CC1 [Example 121, 5-(1-Butyl-piperidin-4yloxy)-9H-dipyrido[2,3-b;4′,3′-d]pyrrole-6-carbonitrile] | < 5 | < 10 |
| CCN[C@H]1CCN(c2c(Br)cnc3[nH]c4cnc(C#N)cc4c23)C1 [Example 56, (S)-3-Bromo-4-(3-(ethylamino)pyrrolidin-1-yl)-9H-dipyrido[2,3-b;4′,3′-d]pyrrole-6-carbonitrile] | < 5 | < 10 |
| N#Cc1ncc2[nH]c3ncccc3c2c1NC1CCNCC1 [Example 172, 5-(Piperidin-4-ylamino)-9H-dipyrido[2,3-b;4′,3′-d]pyrrole-6-carbonitrile] | < 5 | < 10 |
| CCN1CCC[C@@H](Oc2ccnc3[nH]c4cnc(C#N)cc4c23)C1 [Example 67, 4-((R)-1-ethylpiperidin-3-oxy)-9H-dipyrido[2,3-b;4′,3′-d]pyrrole-6-carbonitrile] | < 5 | < 10 |
